# Reference: patent publication US20260063641A1, “COMPOSITIONS AND METHODS FOR LABELING AND DETECTING BINDING PARTNERS” (UNIVERSITY OF UTAH RESEARCH FOUNDATION, priority 2022, published 2026)
# Test system: BRD2, BRD3 and BRD4 (BET proteins) and interactors
# Assay: BioTAC proximity labeling with label-free mass spectrometry-based proteomics of streptavidin-enriched biotinylated proteins
# Format: cell-based
# Protocol: Having determined that the BioTAC system could identify BRD4 as a (+)-JQ1 target in focused screens, it was evaluated as an unbiased target-ID method. To identify direct binders of (+)-JQ1 proteome-wide, BioTAC proximity labelling experiments were performed as described above, followed by label-free mass spectrometry-based proteomic analysis of biotinylated proteins enriched following a 30 minute treatment with 100 μM biotin plus DMSO or 1 μM Cpd1, and then 1 μM Cpd1 off-competed by pre-treatment with 10 μM free (+)-JQ1.
# Having established conditions for determining the primary targets of small molecules using the BioTAC system, its utility in reading out the interactome sphere of (+)-JQ1 bound BET-proteins was next investigated. […] To quantitively evaluate the ability of the BioTAC system to successfully enrich the known interactome of (+)-JQ1 bound BET proteins, time course BioTAC proximity labelling experiments were performed at the 1 h and 4 h time points, and evaluated streptavidin-enriched biotinylated proteins using mass spectrometry-based proteomic analysis (FIG. 2A-C, FIG. 6). […]
# 9 million HEK293 cells were plated into 15 cm dishes containing 12 mL of complete media (DMEM, 10% FBS, 1% pen/strep) and incubated overnight. […] Lysates were clarified by centrifuging at 16,000×g for 10 min and protein concentration determined by BCA assay. […]
structure (smiles),measurement,setting,value
"CC[C@H](C(=O)N1CCCC[C@H]1C(=O)O[C@H](CCc1ccc(OC)c(OC)c1)c1ccccc1OCC(=O)NCCOCCOCCOCCNC(=O)C[C@@H]1N=C(c2ccc(Cl)cc2)c2c(sc(C)c2C)-n2c(C)nnc21)c1cc(OC)c(OC)c(OC)c1 [Cpd1, (R)-1-(2-((17-((S)-4-(4-Chlorophenyl)-2,3,9-trimethyl-6H-thieno[3,2-f][1,2,4]triazolo[4,3-a][1,4]diazepin-6-yl)-2,16-dioxo-6,9,12-trioxa-3,15-diazaheptadecyl)oxy)phenyl)-3-(3,4-dimethoxyphenyl)propyl (S)-1-((S)-2-(3,4,5-trimethoxyphenyl)butanoyl)piperidine-2-carboxylate]",share of statistically significant enriched and (+)-JQ1 rescued hits also present in the Lambert dataset,4 hr timepoint hits,60%
same,"percent enrichment of reference interactors in hits vs 4,000 random protein sets","4 hr timepoint, away from mean of random chance",> 7 standard deviations
